Measured values: patent publication US6413967B1, “Inhibition of novel calcium entry pathway in electrically non-excitable cells acting as an anti-proliferative therapy” (The University of Virginia Patents Foundation, priority 1995, dated 2002)
For at least one compound, name, drawing or mass did not settle the structure.

What was measured:
[1] = system: [Ca^2+]i in Jurkat T cells; experiment: receptor-stimulated Ca2+ influx in Jurkat T cells (anti-CD3 mAb OKT3); assay type: cell-based, human; details: 10 or 30 μM drug
Description: Initially, all drugs are screened using Jurkat T cells incubated with indo-1/AM as outlined below. In the event that there is an effect of the drug on the maximum [Ca^2+]i reached following treatment of the cells with the anti-CD3 mAb […], the drug is evaluated for any effects on the spectral characteristics of indo-1 as outlined in Haverstick and Gray, Mol. Biol. Cell (1993) 4:173. If there is an effect of the drug on the spectral characteristics of indo-1 , the drug is further examined for spectral effects on the combination of fura-red and fluo-3. If there is no effect of the drug on the fura-red/fluo-3 combination, the drug is examined for effects on the maximum [Ca^2+]i reached following OKT3 treatment of cells incubated with 5 μM fura-red and […] as outlined below.
Jurkat cells are incubated in RPMI-1640 plus 5% fbs in the presence of the acetoxymethyl ester of either indo-1 (1 μM) or the combination of fura-red (5 μM) with fluo-3 (1 μM) for one hour at 37° C. Cells are washed three times in buffer A [[…] 4-(2-hydroxyethyl)-1-piperazine ethanesulfonic acid (HEPES), pH 7.4, 3 MM KCl, 1 mM MgCl2, 1 mM CaCl2, 140 mM NaCl, 0.1% glucose] containing 1% fbs and suspended to a final concentration of 1×10^6/ml. […] The effect of drug added prior to receptor stimulation or at the plateau phase of Ca^2+ entry is determined as follows: […]

Jurkat T cells = experiment: Jurkat cell proliferation, tetrazolium dye; assay type: cell-based, human; details: 48 hours
Description: (§1) The effect of various drugs on the proliferation of Jurkat T cells, MDA-468 human breast cancer cells and PC3 human prostate cancer cells was determined by incubating the cells with the indicated concentrations of drug for 48 hours. The number of viable cells remaining at the end of the incubation period was evaluated using the procedure outlined in Example 4.
(§2) Cells are plated in triplicate in a 96-well flat-bottomed plate (Jurkat: 5e4 cells/well in RPMI-1640 plus 5% fbs; MDA468: 2.5e4 per well in DMEM plus 5% fbs and 11 μg/ml insulin) in the absence (control) or presence of drug at 3, 10, 30, and 100 μM. An additional control of 100 μM drug in RPMI-1640 plus 5% fbs or DMEM plus 5% fbs and 11 μg/Ml insulin with no cells is included with each run to control for possible drug interactions with the dye. The plate is then placed in a 5% CO2 37° C. incubator for 44 to 48 hours. 20 μl of dye solution containing a tetrazolium dye (3-(4,5-dimethylthiazol-2-yl)-5-(3-carboxymethoxyphenyl)-2-(4-sulfophenyl)-2H-tetrazolium, Owen's reagent) plus coupling reagent (phenazine methosulfate) is added to each well, the plate is returned to the incubator, and the absorbance at 490 nm is read using an ELISA plate reader 3 to 4 h (Jurkat cells) or 2 to 3 h (MDA-468 cells) later. All data are presented as percent of control (no drug addition). […]

[2] = system: [Ca^2+]i in MDA-468 cells; experiment: EGF receptor-stimulated Ca2+ influx in MDA-468 cells; assay type: cell-based, human; details: drug added post EGF receptor stimulation
Description: MDA468 cells are incubated with either indo-1 or the combination of fura-red/fluo-3 for 1 hour while still adherent in the maintenance flask in DMEM plus 5% fbs and 1 μg/ml insulin. Cells are removed by gentle scraping and washed three times in buffer A containing 1% charcoal stripped fbs (Nelson et al, Br. J. Cancer (1991) 63:933). The cells are then suspended to a final concentration of 1e6/ml and used as above in the SLM. For the human breast cancer cells, Ca^2+ entry is stimulated by the addition of 25 ng/ml EGF, rather than the antibody used above.

[3] = system: MDA-468 human breast cancer cells; experiment: MDA-468 cell proliferation, tetrazolium dye; assay type: cell-based; details: 48 hours
Description: as §1, §2

Structure (SMILES) | T cell [Ca^2+]i (post) ([1]; drug added post T cell receptor stimulation) | T cell PROLIF (Jurkat T cells) | MDA [CA^2+]i (post) [2] | MDA PROLIF [3] | T cell [Ca^2+]i ([1]; effect the same post- and pre- T cell receptor stimulation)
COc1ccc2cc1Oc1ccc(cc1)C[C@H]1c3cc(c(OC)cc3CCN1C)Oc1c(OC)c(OC)cc3c1[C@H](C2)N(C)CC3 [tetrandrine, 6,6′,7,12-tetramethoxy-2,2′-dimethyl-baman] | ↓ (post) | ↓ | ↓ (post) | ↓ | 
COC(=O)C1=C(C)NC(C)=C(C(=O)OCCN(C)Cc2ccccc2)C1c1cccc([N+](=O)[O-])c1 (stereo not shown) [nicardipine] |  | ↓ |  | (↓) | ↓
